PubChem BioAssay AID2417 (National Center for Advancing Translational Sciences (NCATS), 2010)
The campaign covered roughly 140,000 compounds. About 4,300 (3.1%) were called active. The inconclusive results got no clear call from the source; some entries with a clear call stand among them for comparison.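 The calls were made as follows: active = readout at or below -70, meaning at least 70% loss of cells showing the perinucleolar compartment, a nuclear body marking cancer cells; inconclusive = readout between -30 and a set limit; inactive = the rest.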

Assay: High Content Assay for Compounds that inhibit the Assembly of the Perinucleolar Compartment;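 also: plate controls were DMSO wells for no effect and camptothecin positive control wells for full effect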
Conditions: PC3M PTB-GFP, PNC prevalence imaging, 16 h; at 10 µM; hits give low values
In short: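 PC3M cells stably expressing PTB-GFP, 750–1000 cells/well, treated 16 h at 37 °C with compound (23 nl of library stock), in duplicate. After paraformaldehyde fixation and Hoechst stain, imaged at 20x; PNC prevalence scored by image analysis.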

| SMILES | activity change (PNC), negative = inhibition |
| --- | --- |
| Cc1cccc(OCC(=O)Nc2cc(C)ccc2O)c1 | inconclusive: -57.9% |
| Cn1c(=O)[nH]c(=O)c2c1nc(SCCN1CCCCC1)n2Cc1ccccc1 | inconclusive: -49.5% |
| Cc1cc(C)nc(/N=C(/NC(=O)c2ccccc2)Nc2ccccc2)n1 | inconclusive: -30.1% |
| Cc1ccc(C(=O)NNC(=O)Cc2ccccc2)cc1 | inconclusive: -43.1% |
| Cc1c(C(=O)NCCCN2CCOCC2)sc2nc(-c3ccc(F)cc3)cn12 | inconclusive: -43% |
| CCOCC(=O)Nc1cccc(NC(C)=O)c1 | inconclusive: -32.4% |
| COc1ccc2nc(C)c(C(=O)OCCN(C)C)cc2c1 | inactive: 33.4% |
| CC(=O)SCCC(=O)Nc1ccccc1 | inconclusive: -63.2% |
| Cc1nc(SCC(=O)c2cccs2)c2oc3ccccc3c2n1 | inactive: 30.6% |
| COc1ccc(NC(=O)C(C)SCc2ccccc2)cc1OC (stereo not drawn) | inconclusive: -66.5% |
| CCN(CC)S(=O)(=O)c1cc(C(=O)n2cccn2)c(Cl)cc1Cl | inconclusive: -34.7% |
| CCCc1nc2oc3c(NCCOCCO)ncnc3c2c2c1COC(C)(C)C2 | active: -111% |
| Cc1cc(C)n(CCOc2ccc(Cl)cc2Cl)n1 | inconclusive: -32.2% |
| O=C(CCC(=O)Nc1ccccc1)NNC(=O)C(c1ccccc1)c1ccccc1 | inconclusive: -50.5% |
| COc1nc(Nc2ccc(C(C)C)cc2)nc(OC)n1 | inconclusive: -34.7% |
| CCc1nnc(NS(=O)(=O)c2ccc(N/C=C\C(=O)c3ccc(C)cc3)cc2)s1 | inactive: -7.38% |
| CC1CCN(c2oc(-c3cccc4ccccc34)nc2C#N)CC1 | active: -100% |
| CN(C)c1ccc(NS(=O)(=O)c2cc(Cl)ccc2Cl)cc1 | inconclusive: -40.9% |
| CCOC(=O)c1sc(SC)c(C(C)=O)c1C | inconclusive: -60.4% |
| CC(C)N(C(=O)CSc1nc2ccccc2n1Cc1ccccc1F)C(C)C | inconclusive: -43.1% |

| SMILES | activity change (PNC), negative = inhibition |
| --- | --- |
| O=C(Nc1ccc(C(F)(F)F)cc1)c1cc(S(=O)(=O)NCC2COc3ccccc3O2)ccc1F (stereo not drawn) | inconclusive: -38.2% |
| O=C(O)C(Cc1c[nH]c2ccccc12)NS(=O)(=O)c1ccccc1 (stereo not drawn) | inconclusive: -45.9% |
| C(=NCCCN1CCOCC1)c1ccc2c(c1)OCO2 | inactive: -20% |
| COc1ccc(OCc2nn3c(-c4cccc(OC)c4)nnc3s2)cc1 | inactive: -9.42% |
| COc1ccc(C(=O)Nc2cc3c(cc2C#N)OCO3)cc1S(=O)(=O)NCc1ccco1 | inconclusive: -30.1% |
| Cc1cccc2c1NC(=O)/C2=C\C(=O)c1cccs1 | inactive: 29.2% |
| CS(=O)(=O)N(Cc1ccccc1)c1ccc(C(=O)Nc2cccnc2)cc1 | active: -100% |
| CCCOC(=O)c1cccc(Nc2nc(-c3cccnc3)nc3ccccc23)c1 | inconclusive: -41.6% |
| C=CCNC(=O)c1ccc(N(C)S(=O)(=O)c2ccc(OC)cc2)cc1 | inactive: 12.7% |
| Cc1ccsc1/C=N/NC(=O)c1cc(-c2ccncc2)nc2ccccc12 | active: -109% |
| N#CC1=C(N)Oc2n[nH]c(CSc3ccccc3)c2C12C(=O)Nc1ccccc12 (stereo not drawn) | inconclusive: -55.4% |
| Cc1cccc(-n2c(C)cc(/C=N/NC(=O)c3ccc(CN4CCOCC4)cc3)c2C)c1 | inconclusive: -40.1% |
| O=S(=O)(NCc1cn2ccsc2n1)c1ccc2c(c1)OCCO2 | inconclusive: -38.6% |
| COCCOC(=O)C1=C(C)NC2=C(C(=O)CC(C)(C)C2)C1c1ccc2c(c1)OCO2 (stereo not drawn) | inconclusive: -71.2% |
| CC/S(C)=N/S(=O)(=O)c1ccc(C)cc1 (stereo not drawn) | inconclusive: -46.8% |
| O=C(Nn1cnnc1)c1cc([N+](=O)[O-])cc([N+](=O)[O-])c1 | inconclusive: -56% |
| O=C(NCc1ccccn1)Nc1cccc(NC(=O)NCc2ccccn2)c1 | inactive: 8.99% |
| CC(=O)N1CCc2cc(S(=O)(=O)NCCC(=O)NCCc3ccccc3)ccc21 | inconclusive: -32.5% |
| Cc1cc(C(=O)NC(C)c2ccc3c(c2)OCO3)cs1 (stereo not drawn) | inactive: 39.7% |
| Cn1c(SCC(=O)NCc2ccc3c(c2)OCO3)nc2scc(-c3cccs3)c2c1=O | inactive: -23.2% |

| SMILES | activity change (PNC), negative = inhibition |
| --- | --- |
| COc1ccccc1NC(=O)CN1C(=O)C(C)SC(C)C1=O (stereo not drawn) | active: -99% |
| O=C(CN1CCN(c2ncc(C(F)(F)F)cc2Cl)CC1)NCCNc1ncc(C(F)(F)F)cc1Cl | inactive: 24.4% |
| Cc1ccc(N2C(=O)c3ccc(C(=O)NCCN4CCOCC4)cc3C2=O)cc1 | inconclusive: -36% |
| O=C(CCNS(=O)(=O)c1cccc2nsnc12)NCCc1ccccc1 | inconclusive: -67.1% |
| Cc1cc(C)c2c(CN3CCN(C/C=C/c4ccccc4)CC3)cc(=O)oc2c1 | inconclusive: -36.2% |
| Cc1cc2oc(C(=O)N(Cc3ccccc3)C3CCS(=O)(=O)C3)cc(=O)c2cc1Cl (stereo not drawn) | inconclusive: -60% |
| O=C(CNCC1CCCO1)Nc1ccccc1-n1cccc1 (stereo not drawn) | inconclusive: -42.1% |
| CN(C)S(=O)(=O)c1ccc(N2CCCC2)c(C(=O)Nc2nc(-c3cc(F)ccc3F)cs2)c1 | inactive: -23% |
| Cc1c(C#N)c2ccccc2n1CC(=O)N1CCCC1 | inconclusive: -42.2% |
| CC(C)CC(NC(=O)C1CCCN1C(=O)OC(C)(C)C)C(=O)NCC(N)=O (stereo not drawn) | inconclusive: -60.4% |
| Cc1cccc(N/C=C/C(=O)c2cccs2)c1C | inactive: -21.8% |
| Cc1cc(C)n(-c2ccc(C(=O)Nc3nnc(C4CC4)s3)cc2)n1 | inconclusive: -31.7% |
| Cc1cc(=O)[nH]c(SCC(=O)Nc2ccc(C(=O)O)cc2)n1 | inactive: 15.7% |
| O=c1c2ccccc2nc(-c2ccco2)n1CCCn1ccnc1 | inactive: -7.07% |
| O=S(NC1CCCCC1)C12CC3CC(CC(C3)C1)C2 (stereo not drawn) | inconclusive: -41.5% |
| COc1cccc(CNc2nc(SC)ncc2CO)c1 | inconclusive: -44.9% |
| CC(=O)N=C(N)Sc1nc2ccccc2[nH]1 | active: -100% |
| CCOC(=O)C1CCN(C(=O)CCCCn2c(=O)[nH]c3ccccc3c2=O)CC1 | inactive: -15.2% |

Reformatted tab-delimited: part of the list above.
SMILES	activity change (PNC), negative = inhibition
COc1ccccc1NC(=O)CN1C(=O)C(C)SC(C)C1=O (stereo not drawn)	active: -99%
O=C(CN1CCN(c2ncc(C(F)(F)F)cc2Cl)CC1)NCCNc1ncc(C(F)(F)F)cc1Cl	inactive: 24.4%
